This test concerns the target PP2A catalytic Cα subunit, N-terminally SmBiT-tagged (human) (UniProt P67775). Put plainly: split reporter; live COS-1 cells in 96-well plates transfected with equal mass ratios of plasmids for SmBiT-Cα, Bβ2-LgBiT and Aα (without Lg/SmBiT); luminescence with Nano-Glo Live Cell Substrate after 24-36 h; normalised for Bβ2-LgBiT expression with a cell-permeable HiBiT peptide.

Sequences of proteins named here, by UniProt entry; tags and fusion partners are left off.
UniProt P67775: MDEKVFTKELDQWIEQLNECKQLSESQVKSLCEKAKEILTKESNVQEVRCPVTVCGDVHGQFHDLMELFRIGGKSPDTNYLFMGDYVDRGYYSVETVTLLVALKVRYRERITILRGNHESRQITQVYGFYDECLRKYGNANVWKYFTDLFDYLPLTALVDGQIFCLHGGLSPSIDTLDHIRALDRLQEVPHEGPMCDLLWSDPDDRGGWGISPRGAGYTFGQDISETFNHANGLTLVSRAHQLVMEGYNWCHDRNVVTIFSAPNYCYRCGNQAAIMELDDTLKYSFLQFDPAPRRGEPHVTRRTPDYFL

These are yes or no findings as the source states them, for the method shown. Binding seen in cells or lysates may run through a third protein.

Consider “PPP2R2B/Bβ2 RR168EE (monomeric A/B interface mutant), C-terminally LgBiT-tagged (from UniProt Q00005-2)”, for which the binding entry is given as “no binding”.

The record behind these values is article PMC11780858.
